Test results from article PMC11047997.
No constants are given. Whether binding was seen depends on the method and setting. Binding seen in cells or lysates may run through a third protein. Some entries that bind do so weakly or less than the wild type. Sequences can lack the tags named with a protein.

The chains behind the UniProt entries cited, without tags or fusion partners.
UniProt Q969H0: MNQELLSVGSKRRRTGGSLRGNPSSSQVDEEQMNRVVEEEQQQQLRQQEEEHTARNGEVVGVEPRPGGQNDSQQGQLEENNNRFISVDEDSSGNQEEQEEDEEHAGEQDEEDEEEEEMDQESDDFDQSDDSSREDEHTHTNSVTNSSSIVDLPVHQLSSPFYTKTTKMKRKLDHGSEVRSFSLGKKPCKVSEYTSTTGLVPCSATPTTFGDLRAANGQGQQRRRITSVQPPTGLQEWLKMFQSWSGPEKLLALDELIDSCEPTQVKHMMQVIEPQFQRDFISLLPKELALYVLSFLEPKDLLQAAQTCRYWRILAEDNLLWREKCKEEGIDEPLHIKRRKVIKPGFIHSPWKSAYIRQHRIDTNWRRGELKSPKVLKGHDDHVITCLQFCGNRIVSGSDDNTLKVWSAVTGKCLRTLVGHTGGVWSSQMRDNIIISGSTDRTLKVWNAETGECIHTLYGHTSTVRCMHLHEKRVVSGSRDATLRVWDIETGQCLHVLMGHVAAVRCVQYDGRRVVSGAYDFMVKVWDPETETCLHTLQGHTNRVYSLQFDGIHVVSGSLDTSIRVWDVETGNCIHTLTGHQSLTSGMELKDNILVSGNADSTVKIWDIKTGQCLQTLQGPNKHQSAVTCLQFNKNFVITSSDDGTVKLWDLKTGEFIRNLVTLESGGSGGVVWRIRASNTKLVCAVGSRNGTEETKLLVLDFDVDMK
UniProt Q5XUX1: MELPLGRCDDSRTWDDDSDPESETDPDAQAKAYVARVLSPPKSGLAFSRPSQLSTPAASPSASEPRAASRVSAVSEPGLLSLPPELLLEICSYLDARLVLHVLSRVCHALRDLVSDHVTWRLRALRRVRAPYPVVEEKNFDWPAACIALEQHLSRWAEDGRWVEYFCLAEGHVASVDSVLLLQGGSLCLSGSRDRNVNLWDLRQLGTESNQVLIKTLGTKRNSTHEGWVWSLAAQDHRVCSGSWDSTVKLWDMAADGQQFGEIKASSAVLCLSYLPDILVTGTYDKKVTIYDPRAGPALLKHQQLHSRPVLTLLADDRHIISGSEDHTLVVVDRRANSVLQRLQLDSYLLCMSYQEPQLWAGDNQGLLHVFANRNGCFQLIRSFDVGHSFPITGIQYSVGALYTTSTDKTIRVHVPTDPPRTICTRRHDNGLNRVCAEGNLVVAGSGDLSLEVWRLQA
UniProt Q9UKB1: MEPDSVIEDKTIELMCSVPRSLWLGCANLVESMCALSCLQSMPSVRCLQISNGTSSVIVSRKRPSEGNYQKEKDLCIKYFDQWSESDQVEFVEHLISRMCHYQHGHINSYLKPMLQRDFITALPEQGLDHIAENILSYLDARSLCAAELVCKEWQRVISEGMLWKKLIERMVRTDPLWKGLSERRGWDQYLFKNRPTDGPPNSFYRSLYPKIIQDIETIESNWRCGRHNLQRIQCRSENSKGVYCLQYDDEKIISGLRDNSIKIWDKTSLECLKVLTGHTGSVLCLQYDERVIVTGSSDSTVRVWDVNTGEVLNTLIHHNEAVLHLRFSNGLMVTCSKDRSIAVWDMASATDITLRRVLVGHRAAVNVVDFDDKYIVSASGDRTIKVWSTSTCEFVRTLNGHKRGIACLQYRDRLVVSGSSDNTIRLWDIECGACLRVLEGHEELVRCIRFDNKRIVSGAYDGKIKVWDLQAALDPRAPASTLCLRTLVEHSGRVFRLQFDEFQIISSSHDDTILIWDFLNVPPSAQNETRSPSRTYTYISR
UniProt Q9Y297: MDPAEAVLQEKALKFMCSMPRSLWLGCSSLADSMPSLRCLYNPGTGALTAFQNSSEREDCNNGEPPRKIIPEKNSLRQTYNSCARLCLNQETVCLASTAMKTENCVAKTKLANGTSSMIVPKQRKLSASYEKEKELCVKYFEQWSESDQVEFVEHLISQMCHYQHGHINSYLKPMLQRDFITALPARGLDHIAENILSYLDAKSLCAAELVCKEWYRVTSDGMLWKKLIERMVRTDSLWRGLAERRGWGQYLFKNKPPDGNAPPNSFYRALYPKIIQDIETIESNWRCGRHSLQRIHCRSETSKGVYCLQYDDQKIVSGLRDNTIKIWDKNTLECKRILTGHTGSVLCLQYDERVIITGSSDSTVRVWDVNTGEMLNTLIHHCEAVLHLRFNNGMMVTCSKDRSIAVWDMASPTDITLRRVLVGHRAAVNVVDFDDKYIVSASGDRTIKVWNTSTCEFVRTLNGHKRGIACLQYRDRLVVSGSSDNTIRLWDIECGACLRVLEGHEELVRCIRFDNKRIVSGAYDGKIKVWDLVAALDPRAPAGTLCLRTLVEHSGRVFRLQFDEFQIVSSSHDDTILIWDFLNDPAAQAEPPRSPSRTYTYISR
UniProt Q969U6: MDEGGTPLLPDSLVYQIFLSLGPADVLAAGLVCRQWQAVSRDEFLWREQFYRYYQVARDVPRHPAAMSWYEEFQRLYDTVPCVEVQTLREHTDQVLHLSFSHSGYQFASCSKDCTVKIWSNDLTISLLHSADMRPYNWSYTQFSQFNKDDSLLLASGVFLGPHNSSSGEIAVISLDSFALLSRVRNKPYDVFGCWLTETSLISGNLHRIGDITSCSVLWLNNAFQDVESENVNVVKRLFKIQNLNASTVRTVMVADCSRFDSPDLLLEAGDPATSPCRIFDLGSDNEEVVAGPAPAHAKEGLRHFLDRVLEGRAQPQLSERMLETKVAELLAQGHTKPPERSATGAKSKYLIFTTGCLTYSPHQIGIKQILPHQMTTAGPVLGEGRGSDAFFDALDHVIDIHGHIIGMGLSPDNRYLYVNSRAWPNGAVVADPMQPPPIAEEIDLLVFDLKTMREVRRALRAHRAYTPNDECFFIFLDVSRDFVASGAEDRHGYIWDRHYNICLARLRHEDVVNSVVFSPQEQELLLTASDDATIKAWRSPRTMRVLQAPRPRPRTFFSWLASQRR

Assays:
Experiment in all cases: co-IP; HEK293T cells co-transfected, lysed 48 h later in IP lysis buffer (50 mM Tris-HCl pH 7.5, 0.5% Nonidet P-40, 1 mM EDTA, 150 mM NaCl, 1 mM DTT); immunoprecipitation with anti-Flag M2, anti-c-Myc or anti-FBXW7 antibody and rProtein A agarose at 4 °C overnight; Western blot; reciprocal in Figure 2
[1] = biological target: T1, Flag-IL-17RA full-length (human) (UniProt Q96F46)
T1 sequence: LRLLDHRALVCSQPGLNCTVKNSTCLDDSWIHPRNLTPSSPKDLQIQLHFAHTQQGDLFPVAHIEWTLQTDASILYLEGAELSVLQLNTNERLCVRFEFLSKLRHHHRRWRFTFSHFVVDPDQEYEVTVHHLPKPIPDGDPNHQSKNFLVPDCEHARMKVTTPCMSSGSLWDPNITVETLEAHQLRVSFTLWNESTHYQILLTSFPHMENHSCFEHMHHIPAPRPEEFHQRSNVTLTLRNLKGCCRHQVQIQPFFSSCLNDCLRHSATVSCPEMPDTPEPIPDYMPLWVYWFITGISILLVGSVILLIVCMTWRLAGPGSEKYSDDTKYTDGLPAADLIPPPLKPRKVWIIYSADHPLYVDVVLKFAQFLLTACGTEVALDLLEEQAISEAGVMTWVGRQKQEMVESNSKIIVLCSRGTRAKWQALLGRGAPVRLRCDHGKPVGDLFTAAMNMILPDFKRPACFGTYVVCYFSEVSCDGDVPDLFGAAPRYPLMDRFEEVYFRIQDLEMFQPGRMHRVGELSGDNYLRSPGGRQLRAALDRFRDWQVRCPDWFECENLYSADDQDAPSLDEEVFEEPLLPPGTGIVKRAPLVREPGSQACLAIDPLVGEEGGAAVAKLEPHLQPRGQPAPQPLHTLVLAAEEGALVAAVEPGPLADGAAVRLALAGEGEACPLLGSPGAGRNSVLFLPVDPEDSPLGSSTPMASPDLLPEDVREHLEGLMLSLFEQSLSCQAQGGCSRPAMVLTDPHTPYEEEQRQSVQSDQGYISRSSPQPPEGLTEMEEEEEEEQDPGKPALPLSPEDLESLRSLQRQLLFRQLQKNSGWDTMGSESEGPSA

[2] = biological target: T2, Myc-His-IL-17RA full-length (human) (UniProt Q96F46)
T2 sequence: T1 sequence

[3] = biological target: T3, Flag-IL-17RA ∆729-773 (human) (UniProt Q96F46)
T3 sequence: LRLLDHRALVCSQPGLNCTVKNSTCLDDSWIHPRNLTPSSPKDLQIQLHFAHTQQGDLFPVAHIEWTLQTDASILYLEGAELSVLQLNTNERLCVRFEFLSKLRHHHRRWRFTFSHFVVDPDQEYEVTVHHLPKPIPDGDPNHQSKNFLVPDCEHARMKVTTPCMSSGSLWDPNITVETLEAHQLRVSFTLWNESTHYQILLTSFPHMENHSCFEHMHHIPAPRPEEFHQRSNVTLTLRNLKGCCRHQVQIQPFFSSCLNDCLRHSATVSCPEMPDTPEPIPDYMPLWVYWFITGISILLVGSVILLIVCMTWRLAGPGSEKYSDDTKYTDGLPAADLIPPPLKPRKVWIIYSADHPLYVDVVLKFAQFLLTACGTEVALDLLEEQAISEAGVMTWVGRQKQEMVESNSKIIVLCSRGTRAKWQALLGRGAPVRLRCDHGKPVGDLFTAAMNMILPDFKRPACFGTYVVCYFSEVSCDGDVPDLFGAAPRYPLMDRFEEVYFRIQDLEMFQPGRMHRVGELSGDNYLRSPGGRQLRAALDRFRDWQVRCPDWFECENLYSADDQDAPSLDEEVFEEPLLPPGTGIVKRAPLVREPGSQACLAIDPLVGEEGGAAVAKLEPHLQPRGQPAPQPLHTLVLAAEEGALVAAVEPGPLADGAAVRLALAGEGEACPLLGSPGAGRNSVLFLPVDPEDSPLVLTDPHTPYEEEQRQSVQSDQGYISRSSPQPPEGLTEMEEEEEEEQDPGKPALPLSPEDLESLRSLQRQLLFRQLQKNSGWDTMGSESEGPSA

binding [1] | binding [2] | binding [3] | Substance
binds weakly |  |  | HA-tagged full-length FBXW7 (from UniProt Q969H0 1-707) (enzyme)
 | binds |  | Flag-HA-FBXW9 (from UniProt Q5XUX1 1-458) (enzyme)
binds | binds | binds | Flag-HA-FBXW11 (from UniProt Q9UKB1 1-542) (enzyme)
binds |  | binds | Myc-FBXW1A (from UniProt Q9Y297 1-605) (enzyme)
binds |  |  | Myc-FBXW5 (from UniProt Q969U6 1-566) (enzyme)
